# Results are given in words; binding and its absence hold for the method and conditions named. Binding seen in cells or lysates may run through a third protein. Some entries that bind do so weakly or less than the wild type.
# The chains behind the UniProt entries cited, without tags or fusion partners. Where a name states a change or a piece, a line headed by the entry shows the natural chain unless it says otherwise.
# UniProt Q6ZMR5: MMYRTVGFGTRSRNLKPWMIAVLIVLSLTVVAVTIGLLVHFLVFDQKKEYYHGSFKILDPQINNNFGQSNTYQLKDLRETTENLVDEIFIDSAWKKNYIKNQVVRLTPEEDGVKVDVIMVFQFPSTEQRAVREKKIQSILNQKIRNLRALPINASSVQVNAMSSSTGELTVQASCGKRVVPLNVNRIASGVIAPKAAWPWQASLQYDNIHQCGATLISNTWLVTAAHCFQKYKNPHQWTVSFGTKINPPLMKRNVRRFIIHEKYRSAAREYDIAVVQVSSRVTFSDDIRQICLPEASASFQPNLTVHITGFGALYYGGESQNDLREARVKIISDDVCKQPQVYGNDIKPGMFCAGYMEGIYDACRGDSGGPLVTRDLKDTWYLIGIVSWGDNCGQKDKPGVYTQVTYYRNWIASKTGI
# UniProt P05556: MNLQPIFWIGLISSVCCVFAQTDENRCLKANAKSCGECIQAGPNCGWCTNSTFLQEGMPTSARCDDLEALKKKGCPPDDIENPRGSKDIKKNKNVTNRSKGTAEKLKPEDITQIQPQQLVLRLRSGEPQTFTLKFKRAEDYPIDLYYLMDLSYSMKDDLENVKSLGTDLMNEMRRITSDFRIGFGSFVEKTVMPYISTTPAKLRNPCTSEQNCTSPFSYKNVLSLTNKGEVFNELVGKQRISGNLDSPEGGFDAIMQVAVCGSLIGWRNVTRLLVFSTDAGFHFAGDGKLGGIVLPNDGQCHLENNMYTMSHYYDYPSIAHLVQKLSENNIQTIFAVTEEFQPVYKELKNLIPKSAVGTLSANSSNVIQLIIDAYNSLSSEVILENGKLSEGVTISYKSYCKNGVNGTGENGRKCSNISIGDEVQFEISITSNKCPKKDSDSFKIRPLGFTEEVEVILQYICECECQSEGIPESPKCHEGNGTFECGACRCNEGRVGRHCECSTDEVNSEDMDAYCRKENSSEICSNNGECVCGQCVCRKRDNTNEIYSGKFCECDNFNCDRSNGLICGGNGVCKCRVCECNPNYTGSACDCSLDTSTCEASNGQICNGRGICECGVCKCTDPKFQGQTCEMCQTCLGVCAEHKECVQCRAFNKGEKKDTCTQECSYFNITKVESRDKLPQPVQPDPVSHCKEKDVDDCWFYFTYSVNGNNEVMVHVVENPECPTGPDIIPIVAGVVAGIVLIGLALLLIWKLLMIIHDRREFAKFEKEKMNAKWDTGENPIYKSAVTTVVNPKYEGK
# Target: Transmembrane Serine protease 11A (TMPRSS11a) (UniProt Q6ZMR5)
# Assay: proximity ligation; proximity ligation assays (PLA) between TMPRSS11a and beta-1 Integrin; cells not given
substance,measurement,value
Integrin beta-1 protein (from UniProt P05556 21-798) (receptor),binding,binds

# Reference: paper PMC8281810
